No constants are given. Whether binding was seen depends on the method and setting. For some assays here: In cells and extracts the contact can be indirect. Some binding calls cover weakened binding; strength is not graded here. For some assays here: Sequences can lack the tags named with a protein.
B1: PI3KC2α^ΔN+ΔPX−C2 WT (mouse PI3KC2α amino acids 377–1,400) (domain or fragment, UniProt Q61194 377-1400)
chain: VQNDEVAAFCQSIMKLKTKFPYTDHCTNPGYLLSPVTVQRNMCGENASVKVSIEIEGLQLPVTFTCDVSSTVEIIIMQALCWVHDDLNQVDVGSYILKVCGQEEVLQNNHCLGSHEHIQNCRKWDTEIKLQLLTLSAMCQNLARTAEDDEAPVDLNKYLYQIEKPYKEVMTRHPVEELLDSYHYQVELALQTENQHRAVDQVIKAVRKICSALDGVETPSVTEAVKKLKRAVNLPRNKSADVTSLSGSDTRKNSTKGSLNPENPVQVSMDHLTTAIYDLLRLHANSSRCSTACPRGSRNIKEAWTATEQLQFTVYAAHGISSNWVSNYEKYYLICSLSHNGKDLFKPIQSKKVGTYKNFFYLIKWDELIIFPIQISQLPLESVLHLTLFGVLNQSSGSSPDSNKQRKGPEALGKVSLTLFDFKRFLTCGTKLLYLWTSSHTNSIPGAIPKKSYVMERIVLQVDFPSPAFDIIYTSPQIDRNIIQQDKLETLESDIKGKLLDIIHRDSSFGLSKEDKVFLWENRYYCLKHPNCLPKILASAPNWKWANLAKTYSLLHQWPPLCPLAALELLDAKFADQEVRSLAVSWMEAISDDELADLLPQFVQALKYEIYLNSSLVRFLLSRALGNIQIAHSLYWLLKDALHDTHFGSRYEHVLGALLSVGGKGLREELSKQMKLVQLLGGVAEKVRQASGSTRQVVLQKSMERVQSFFLRNKCRLPLKPSLVAKELNIKSCSFFSSNAMPLKVTMVNADPLGEEINVMFKVGEDLRQDMLALQMIKIMDKIWLKEGLDLRMVIFRCLSTGRDRGMVELVPASDTLRKIQVEYGVTGSFKDKPLAEWLRKYNPSEEEYEKASENFIYSCAGCCVATYVLGICDRHNDNIMLRSTGHMFHIDFGKFLGHAQMFGSFKRDRAPFVLTSDMAYVINGGEKPTIRFQLFVDLCCQAYNLIRKQTNLFLNLLSLMIPSGLPELTSIQDLKYVRDALQPQTTDAEATIFFTRLIESSLGSIATKFNFFIHNLAQLRFSG

Columns and labels:
[1] = biological target: TACC3 (endogenous) (human (endogenous in HEK293T)) (UniProt Q9Y6A5); test: co-IP; metaphase-arrested HEK293T cells expressing eGFP-PI3KC2α WT or mutants; endogenous TACC3 immunoprecipitated with anti-TACC3 antibodies, bound proteins detected with anti-GFP antibodies
[2] = biological target: T1, GST-PX (PI3KC2α amino acids 1409–1539) (mouse) (UniProt Q61194); test: pull-down; 10 μg immobilized GST fusion protein as bait, 200 μg PI3KC2α^ΔN+ΔPX−C2 WT or RBD mutant in 500 μl binding buffer (20 mM Tris, pH 7.5, 100 mM NaCl), 1 h at 4 °C, three washes; SDS-PAGE and Coomassie blue staining, quantified with ImageJ; both purified
T1 sequence: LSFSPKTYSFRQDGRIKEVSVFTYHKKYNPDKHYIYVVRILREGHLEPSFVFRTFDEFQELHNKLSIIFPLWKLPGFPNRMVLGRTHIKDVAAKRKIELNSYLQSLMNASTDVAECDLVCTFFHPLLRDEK

| Molecule | binding [1] | binding [2] |
| --- | --- | --- |
| eGFP-PI3KC2α WT (from UniProt O00443 1-1686) (enzyme) | binds | – |
| B1 | – | no binding (tested: 200 μg of PI3KC2α^ΔN+ΔPX−C2 in 500 μl) |

Source: PMC8930771, “Structural basis of phosphatidylinositol 3-kinase C2α function” (Nature Structural & Molecular Biology, 2022)
